Reference: article PMC8671642
No constants are given. Whether binding was seen depends on the method and setting. For some assays here: In cells and extracts the contact can be indirect. Some binding calls cover weakened binding; strength is not graded here. For some assays here: Sequences can lack the tags named with a protein.

Protein sequences, listed by entry. Tags and fused reporters are not part of them. Residues count along the entry.
UniProt Q5NCH9, residues 24-871: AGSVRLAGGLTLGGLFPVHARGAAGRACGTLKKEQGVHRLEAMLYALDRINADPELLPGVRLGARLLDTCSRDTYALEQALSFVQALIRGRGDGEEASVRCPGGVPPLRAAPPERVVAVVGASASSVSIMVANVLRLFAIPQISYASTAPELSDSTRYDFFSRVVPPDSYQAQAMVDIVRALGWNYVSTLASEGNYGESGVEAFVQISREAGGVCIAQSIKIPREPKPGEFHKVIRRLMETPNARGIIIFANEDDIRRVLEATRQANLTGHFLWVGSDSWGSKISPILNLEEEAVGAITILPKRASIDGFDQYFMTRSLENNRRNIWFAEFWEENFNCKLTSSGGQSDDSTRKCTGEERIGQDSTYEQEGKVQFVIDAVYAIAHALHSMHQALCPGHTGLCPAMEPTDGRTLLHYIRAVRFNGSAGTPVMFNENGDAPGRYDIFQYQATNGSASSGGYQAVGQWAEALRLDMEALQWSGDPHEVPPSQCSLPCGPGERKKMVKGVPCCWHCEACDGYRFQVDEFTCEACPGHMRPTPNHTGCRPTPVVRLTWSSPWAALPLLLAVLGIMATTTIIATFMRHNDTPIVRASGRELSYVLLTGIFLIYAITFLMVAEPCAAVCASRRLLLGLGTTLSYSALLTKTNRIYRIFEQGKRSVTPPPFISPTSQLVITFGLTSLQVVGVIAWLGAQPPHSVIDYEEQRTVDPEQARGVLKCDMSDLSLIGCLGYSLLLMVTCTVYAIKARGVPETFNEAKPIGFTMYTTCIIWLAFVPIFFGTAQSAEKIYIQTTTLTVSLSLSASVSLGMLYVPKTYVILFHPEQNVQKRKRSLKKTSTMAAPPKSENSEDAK

Columns and labels:
[1] = target: T1, extracellular domain of mouse ELFN1 (a.a. 1-418) fused to human Fc (mouse) (UniProt Q8C8T7); assay: pull-down; Fc fusion secreted into media and bound to protein G agarose beads; incubated with lysate of transfected HEK cells (PBS, 1% Triton X-100, 50 mM supplemental NaCl) at 4 °C for 90 min; beads washed four times; blotted with mGluR6 mAb 312; only the target purified
T1 sequence: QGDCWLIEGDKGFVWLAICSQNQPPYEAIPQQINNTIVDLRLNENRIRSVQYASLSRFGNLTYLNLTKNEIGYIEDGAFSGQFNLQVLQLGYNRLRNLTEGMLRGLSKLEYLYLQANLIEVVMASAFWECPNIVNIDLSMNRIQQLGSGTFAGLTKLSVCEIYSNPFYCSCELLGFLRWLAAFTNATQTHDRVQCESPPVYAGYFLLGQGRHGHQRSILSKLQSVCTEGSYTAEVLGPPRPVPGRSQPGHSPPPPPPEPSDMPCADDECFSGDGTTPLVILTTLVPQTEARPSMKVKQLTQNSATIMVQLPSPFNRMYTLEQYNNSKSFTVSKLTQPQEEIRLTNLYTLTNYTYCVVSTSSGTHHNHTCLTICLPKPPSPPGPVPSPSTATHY

[2] = target: mouse mGluR6 (metabotropic glutamate receptor 6), WT, untagged (mouse) (UniProt Q5NCH9); assay: SDS-PAGE and western blot (size of the band); input lysate of transfected HEK cells resolved by SDS-PAGE, blotted with mGluR6 mAb 312

binding [1]: binds
binding [2]: binds
Substance: mouse mGluR6 (metabotropic glutamate receptor 6), WT, untagged (from UniProt Q5NCH9 24-871)
